Test results as given in article doi:10.1101/2022.12.06.519316.
These are yes or no findings as the source states them, for the method shown. For part of these data: Binding seen in cells or lysates may run through a third protein. Some binding calls cover weakened binding; strength is not graded here. For part of these data: Where a sequence is shown, tags or fusion partners need not be part of it.

The chains behind the UniProt entries cited, without tags or fusion partners. Where a name states a change or a piece, a line headed by the entry shows the natural chain unless it says otherwise. Residues count along the entry.
UniProt Q96LA9, residues 2-322: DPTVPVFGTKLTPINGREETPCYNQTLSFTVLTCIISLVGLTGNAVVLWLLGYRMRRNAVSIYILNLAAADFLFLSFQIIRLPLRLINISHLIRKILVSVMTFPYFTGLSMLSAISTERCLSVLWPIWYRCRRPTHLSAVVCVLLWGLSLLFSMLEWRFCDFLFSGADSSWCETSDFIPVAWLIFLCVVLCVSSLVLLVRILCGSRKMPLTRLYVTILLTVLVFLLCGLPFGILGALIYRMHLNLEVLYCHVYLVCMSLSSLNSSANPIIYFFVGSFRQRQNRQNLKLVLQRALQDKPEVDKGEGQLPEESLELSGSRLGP
UniProt Q16602: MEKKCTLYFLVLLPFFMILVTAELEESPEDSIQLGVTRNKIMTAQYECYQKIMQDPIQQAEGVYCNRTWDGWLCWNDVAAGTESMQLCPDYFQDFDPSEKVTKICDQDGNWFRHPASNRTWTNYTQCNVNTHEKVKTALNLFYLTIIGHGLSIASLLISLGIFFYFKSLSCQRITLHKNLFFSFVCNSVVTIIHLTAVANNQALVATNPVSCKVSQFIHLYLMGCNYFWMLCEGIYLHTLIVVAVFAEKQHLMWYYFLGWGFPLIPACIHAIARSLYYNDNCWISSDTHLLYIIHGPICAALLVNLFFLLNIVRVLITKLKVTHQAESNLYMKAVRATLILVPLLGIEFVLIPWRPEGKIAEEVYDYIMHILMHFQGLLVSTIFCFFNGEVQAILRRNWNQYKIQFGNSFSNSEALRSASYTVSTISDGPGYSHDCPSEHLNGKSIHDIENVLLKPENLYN
UniProt O60895, residues 43-175: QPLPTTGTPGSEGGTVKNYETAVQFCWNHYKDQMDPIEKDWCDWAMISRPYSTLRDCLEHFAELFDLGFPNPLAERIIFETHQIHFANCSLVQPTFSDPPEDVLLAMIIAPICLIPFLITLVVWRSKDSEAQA
UniProt P49407: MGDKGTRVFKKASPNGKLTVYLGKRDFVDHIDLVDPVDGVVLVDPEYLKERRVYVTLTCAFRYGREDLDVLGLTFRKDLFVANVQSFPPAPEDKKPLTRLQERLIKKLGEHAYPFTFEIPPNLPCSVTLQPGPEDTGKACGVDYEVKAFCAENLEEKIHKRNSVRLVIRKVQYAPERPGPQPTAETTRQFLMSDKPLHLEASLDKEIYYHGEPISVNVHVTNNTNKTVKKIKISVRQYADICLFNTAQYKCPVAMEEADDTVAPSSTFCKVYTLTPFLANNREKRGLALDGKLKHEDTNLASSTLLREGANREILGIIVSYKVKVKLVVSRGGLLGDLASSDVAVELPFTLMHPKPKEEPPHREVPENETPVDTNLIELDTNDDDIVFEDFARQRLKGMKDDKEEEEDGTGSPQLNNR
UniProt P32121: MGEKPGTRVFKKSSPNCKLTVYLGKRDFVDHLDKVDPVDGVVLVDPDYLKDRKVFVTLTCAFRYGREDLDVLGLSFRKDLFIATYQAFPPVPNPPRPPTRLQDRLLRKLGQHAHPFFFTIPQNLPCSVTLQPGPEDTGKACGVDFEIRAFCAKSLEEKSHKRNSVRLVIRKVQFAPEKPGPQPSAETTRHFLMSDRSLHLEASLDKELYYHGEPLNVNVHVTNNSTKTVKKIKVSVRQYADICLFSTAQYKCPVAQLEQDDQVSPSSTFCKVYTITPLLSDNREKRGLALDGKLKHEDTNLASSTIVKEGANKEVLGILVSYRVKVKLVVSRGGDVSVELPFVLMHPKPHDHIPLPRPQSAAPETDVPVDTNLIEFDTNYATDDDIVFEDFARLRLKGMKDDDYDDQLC

Legend:
[1] = molecular target: FLAG-MRGPRX4-GFP10-1D4 (human) (UniProt Q96LA9); test: proximity ligation
[2] = molecular target: HA-MRGPRX4-1D4 (Mas-related GPCR subtype X4, dual epitope-tagged) (human) (UniProt Q96LA9); test: multiplexed suspension bead array
[3] = molecular target: CALCRL in complex with RAMP2 (calcitonin receptor-like receptor co-expressed with RAMP2) (human) (UniProt Q16602+O60895); test: FRET or BRET

Molecule	binding [1]	binding [2]	binding [3]
3xHA-RAMP2-OLLAS (from UniProt O60895 43-175)	binds	–	–
FLAG-RAMP2-OLLAS (receptor activity-modifying protein 2) (from UniProt O60895 43-175)	–	binds	–
β-arrestin1-RLuc3 (from UniProt P49407 1-418)	–	–	binds
β-arrestin2-RLuc3 (from UniProt P32121 1-409)	–	–	binds
FLAG-RAMP3-OLLAS (receptor activity-modifying protein 3) (protein, UniProt O60896 28-148) CNETGMLERLPLCGKAFADMMGKVDVWKWCNLSEFIVYYESFTNCTEMEANVVGCYWPNPLAQGFITGIHRQFFSNCTVDRVHLEDPPDEVLIPLIVIPVVLTVAMAGLVVWRSKRTDTLL	–	binds	–
3xHA-RAMP3-OLLAS (protein, UniProt O60896 28-148) CNETGMLERLPLCGKAFADMMGKVDVWKWCNLSEFIVYYESFTNCTEMEANVVGCYWPNPLAQGFITGIHRQFFSNCTVDRVHLEDPPDEVLIPLIVIPVVLTVAMAGLVVWRSKRTDTLL	binds	–	–
